Laboratory results reported in the supplement of paper PMC10849652.
The list shows a part of the results.

Sequences of proteins named here, by UniProt entry; tags and fusion partners are left off. A change or cut given only in a name is not applied to a line headed by its entry.
UniProt O15015: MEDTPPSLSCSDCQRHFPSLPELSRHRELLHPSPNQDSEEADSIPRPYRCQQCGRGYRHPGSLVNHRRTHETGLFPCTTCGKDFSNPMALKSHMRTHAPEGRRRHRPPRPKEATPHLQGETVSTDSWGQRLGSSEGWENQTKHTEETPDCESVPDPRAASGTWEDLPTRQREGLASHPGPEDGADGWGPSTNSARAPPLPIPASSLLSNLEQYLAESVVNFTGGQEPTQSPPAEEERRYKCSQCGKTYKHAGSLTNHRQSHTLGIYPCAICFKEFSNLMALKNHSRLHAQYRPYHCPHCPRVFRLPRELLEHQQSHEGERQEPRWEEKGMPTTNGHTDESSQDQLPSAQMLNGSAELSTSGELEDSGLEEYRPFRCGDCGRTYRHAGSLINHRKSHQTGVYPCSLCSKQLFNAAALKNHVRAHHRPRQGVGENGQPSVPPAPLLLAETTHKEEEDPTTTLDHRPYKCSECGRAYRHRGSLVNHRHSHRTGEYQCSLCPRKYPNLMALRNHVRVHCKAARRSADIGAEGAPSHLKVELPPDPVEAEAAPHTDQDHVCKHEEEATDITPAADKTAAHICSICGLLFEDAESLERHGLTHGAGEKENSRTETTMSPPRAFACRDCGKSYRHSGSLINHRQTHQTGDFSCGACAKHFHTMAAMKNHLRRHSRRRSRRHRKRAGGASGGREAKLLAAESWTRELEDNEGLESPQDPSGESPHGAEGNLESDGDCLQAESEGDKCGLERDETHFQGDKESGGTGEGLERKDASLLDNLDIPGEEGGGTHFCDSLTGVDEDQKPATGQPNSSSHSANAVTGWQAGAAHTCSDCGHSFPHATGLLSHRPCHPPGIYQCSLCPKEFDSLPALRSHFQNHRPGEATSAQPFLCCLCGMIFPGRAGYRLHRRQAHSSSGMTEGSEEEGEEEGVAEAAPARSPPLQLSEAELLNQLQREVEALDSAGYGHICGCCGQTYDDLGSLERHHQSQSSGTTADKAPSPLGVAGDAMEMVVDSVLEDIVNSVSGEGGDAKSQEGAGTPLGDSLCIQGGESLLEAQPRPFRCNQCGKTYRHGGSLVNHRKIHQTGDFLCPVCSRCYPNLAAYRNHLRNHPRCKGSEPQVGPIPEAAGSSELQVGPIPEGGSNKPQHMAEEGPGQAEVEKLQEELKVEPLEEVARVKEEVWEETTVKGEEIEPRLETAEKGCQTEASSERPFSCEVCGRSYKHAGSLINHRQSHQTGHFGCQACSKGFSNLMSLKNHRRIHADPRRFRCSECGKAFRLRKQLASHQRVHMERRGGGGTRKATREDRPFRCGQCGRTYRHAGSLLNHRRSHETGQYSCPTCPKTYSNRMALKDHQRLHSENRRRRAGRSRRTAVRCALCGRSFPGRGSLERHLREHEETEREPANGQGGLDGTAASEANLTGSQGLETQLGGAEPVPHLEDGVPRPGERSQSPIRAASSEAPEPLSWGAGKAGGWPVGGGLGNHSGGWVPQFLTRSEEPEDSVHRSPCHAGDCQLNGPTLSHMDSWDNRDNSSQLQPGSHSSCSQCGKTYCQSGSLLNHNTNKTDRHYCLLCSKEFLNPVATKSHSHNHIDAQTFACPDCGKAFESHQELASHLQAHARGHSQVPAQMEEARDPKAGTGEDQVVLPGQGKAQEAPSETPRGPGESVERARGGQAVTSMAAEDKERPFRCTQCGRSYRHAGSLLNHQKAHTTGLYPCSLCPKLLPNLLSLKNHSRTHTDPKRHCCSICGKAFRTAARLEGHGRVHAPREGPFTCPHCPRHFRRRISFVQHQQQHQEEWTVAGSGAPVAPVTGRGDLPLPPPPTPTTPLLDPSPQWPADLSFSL
UniProt Q8N720: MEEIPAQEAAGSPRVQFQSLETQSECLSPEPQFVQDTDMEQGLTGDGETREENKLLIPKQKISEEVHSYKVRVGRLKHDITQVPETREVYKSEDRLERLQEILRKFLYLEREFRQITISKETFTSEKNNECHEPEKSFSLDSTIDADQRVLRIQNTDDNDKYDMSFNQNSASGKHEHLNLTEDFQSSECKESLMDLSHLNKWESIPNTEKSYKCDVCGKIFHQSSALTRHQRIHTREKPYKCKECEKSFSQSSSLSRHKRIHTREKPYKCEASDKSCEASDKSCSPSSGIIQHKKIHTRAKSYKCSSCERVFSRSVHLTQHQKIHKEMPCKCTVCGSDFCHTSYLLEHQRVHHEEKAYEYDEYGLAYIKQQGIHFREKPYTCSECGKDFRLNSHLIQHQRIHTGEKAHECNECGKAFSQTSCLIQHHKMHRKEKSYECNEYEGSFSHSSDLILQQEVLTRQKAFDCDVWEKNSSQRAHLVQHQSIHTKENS
UniProt Q6ZN06: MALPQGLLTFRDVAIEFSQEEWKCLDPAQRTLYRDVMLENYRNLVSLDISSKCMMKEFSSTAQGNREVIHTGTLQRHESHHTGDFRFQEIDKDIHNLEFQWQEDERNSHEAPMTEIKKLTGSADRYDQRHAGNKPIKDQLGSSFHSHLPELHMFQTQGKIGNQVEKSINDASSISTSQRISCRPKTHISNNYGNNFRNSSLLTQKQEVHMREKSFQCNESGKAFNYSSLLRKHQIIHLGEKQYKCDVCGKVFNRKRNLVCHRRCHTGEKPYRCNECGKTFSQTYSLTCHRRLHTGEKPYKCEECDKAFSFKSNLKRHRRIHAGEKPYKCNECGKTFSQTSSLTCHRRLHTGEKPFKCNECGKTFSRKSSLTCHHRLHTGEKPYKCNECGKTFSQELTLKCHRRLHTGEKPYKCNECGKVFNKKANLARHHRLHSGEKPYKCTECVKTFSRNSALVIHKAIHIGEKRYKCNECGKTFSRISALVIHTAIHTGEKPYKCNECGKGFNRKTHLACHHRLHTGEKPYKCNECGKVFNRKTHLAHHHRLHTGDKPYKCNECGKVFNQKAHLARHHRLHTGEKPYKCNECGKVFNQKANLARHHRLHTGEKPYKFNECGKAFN
UniProt Q9Y5A6: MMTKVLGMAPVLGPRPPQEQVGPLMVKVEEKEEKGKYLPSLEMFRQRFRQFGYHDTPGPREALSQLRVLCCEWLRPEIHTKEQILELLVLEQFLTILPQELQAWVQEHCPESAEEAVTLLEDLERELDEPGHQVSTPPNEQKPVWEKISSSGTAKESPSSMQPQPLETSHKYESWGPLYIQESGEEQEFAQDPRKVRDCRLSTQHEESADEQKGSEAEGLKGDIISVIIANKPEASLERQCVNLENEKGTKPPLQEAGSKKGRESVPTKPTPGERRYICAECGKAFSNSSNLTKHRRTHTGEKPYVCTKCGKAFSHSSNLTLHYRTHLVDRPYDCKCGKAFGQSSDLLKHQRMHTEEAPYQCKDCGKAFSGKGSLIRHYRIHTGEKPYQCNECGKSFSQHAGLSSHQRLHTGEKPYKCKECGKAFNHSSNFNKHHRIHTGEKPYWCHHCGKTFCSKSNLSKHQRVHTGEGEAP
UniProt Q9Y2D9: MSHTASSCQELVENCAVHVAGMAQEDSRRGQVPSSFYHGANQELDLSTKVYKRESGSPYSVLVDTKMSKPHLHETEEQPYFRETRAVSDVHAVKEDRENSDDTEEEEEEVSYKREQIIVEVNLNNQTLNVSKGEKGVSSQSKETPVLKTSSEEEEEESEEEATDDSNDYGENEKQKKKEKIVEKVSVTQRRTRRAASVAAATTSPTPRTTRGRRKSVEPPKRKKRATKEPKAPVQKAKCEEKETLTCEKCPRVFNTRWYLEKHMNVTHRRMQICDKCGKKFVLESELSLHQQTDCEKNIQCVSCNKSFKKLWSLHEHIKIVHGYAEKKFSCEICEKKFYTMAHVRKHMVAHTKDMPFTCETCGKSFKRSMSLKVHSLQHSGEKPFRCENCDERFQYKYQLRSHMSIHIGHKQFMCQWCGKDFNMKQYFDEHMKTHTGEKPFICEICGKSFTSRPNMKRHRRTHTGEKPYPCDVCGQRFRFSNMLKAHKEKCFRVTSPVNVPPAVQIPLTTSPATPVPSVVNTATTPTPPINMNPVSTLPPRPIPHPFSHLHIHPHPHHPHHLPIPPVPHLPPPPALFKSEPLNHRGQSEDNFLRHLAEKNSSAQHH
UniProt Q6NUN9: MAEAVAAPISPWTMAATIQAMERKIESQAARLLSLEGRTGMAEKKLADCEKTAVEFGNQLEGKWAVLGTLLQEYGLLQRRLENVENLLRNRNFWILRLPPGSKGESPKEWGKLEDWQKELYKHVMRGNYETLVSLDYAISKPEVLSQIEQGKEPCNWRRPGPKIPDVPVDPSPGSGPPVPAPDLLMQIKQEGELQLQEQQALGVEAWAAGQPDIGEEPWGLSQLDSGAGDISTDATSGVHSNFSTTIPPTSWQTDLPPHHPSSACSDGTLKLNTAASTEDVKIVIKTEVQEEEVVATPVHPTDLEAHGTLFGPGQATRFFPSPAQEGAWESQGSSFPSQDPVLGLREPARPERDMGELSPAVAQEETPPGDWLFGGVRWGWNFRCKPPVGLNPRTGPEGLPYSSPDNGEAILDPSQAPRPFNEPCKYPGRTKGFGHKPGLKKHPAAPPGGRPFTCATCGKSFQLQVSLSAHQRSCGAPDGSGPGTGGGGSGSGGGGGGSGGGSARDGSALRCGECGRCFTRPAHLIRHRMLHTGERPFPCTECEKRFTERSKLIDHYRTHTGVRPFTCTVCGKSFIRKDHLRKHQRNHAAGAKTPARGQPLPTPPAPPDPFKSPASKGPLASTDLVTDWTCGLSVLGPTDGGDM
UniProt Q9BS34: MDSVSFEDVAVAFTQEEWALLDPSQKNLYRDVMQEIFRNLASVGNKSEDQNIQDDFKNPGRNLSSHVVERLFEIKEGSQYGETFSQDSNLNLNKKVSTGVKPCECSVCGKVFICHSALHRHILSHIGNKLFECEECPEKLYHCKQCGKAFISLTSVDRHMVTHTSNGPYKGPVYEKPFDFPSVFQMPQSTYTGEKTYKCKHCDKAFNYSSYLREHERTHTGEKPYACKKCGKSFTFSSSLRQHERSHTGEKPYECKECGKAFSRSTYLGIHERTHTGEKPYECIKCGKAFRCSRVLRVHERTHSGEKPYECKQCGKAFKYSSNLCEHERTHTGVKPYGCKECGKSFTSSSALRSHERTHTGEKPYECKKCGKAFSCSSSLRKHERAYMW
UniProt Q9P1U0, whole entry, looked up: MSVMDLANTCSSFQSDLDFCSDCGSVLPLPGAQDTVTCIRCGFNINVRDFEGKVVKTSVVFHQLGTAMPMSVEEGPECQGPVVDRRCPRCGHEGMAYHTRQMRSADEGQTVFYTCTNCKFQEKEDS
UniProt Q7L945: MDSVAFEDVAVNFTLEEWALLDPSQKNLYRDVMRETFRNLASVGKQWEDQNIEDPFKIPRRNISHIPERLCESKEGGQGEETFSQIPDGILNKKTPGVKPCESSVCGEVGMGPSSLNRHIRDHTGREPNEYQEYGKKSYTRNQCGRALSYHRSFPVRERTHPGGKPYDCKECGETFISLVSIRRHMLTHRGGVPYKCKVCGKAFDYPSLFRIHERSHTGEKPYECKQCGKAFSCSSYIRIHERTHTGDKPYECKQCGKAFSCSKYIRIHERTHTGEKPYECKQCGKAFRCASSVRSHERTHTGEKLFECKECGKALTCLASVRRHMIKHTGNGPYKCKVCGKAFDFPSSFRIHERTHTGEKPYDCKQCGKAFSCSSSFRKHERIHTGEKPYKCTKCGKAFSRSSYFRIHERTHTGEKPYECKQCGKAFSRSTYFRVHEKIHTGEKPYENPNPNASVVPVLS
UniProt Q96AP4: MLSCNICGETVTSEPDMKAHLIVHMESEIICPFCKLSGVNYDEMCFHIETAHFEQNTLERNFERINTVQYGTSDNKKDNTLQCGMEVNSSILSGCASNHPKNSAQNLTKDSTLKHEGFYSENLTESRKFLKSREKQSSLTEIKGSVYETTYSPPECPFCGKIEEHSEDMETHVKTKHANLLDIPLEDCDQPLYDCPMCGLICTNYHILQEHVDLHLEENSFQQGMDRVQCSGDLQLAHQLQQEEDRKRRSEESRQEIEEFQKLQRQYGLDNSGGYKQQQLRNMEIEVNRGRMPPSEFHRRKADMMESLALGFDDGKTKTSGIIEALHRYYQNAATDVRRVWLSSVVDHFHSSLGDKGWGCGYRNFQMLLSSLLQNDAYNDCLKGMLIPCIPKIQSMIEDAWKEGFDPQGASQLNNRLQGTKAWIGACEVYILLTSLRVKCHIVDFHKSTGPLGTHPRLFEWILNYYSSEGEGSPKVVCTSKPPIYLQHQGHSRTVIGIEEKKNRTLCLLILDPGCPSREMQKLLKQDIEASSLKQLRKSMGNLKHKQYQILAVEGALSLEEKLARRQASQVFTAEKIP
UniProt Q96IQ9: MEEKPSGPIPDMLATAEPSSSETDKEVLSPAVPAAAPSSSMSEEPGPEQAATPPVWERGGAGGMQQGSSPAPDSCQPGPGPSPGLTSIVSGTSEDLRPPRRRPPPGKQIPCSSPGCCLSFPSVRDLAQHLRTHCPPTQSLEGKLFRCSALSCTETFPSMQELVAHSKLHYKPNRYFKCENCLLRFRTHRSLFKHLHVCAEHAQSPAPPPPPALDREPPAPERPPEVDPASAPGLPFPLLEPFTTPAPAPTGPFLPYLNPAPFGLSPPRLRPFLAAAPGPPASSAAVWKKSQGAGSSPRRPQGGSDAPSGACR

Key:
Experiment in all cases: log2 fold change, soluble protein after heating vs DMSO (PISA); higher = thermal stabilisation; K562 lysate, 10 uM; active = over 0.2 and 3.5 SD of the protein, either way, in both replicates (recomputed)
[1] = compound: CCn1c(C(=O)N(C2CC2)C2CC2)cc2c3c(ncn3C)c(Nc3cc(C)n(C)n3)nc21
Summary of the method: (§1)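 Quantification was by TMTpro 16plex LC-MS/MS with equalised channel sums, applied to the supernatant after 21,000xg for 90 min. Samples were crude K562 extract at 1 mg/mL protein in PBS pH 7.4 with 1 mM MgCl2, treated with 10 μM compound for 30 min, heated for 3 min across 48°C-58°C, pooled and brought to 0.5% NP-40 at 4°C. Values are log-two fold changes in thermal stability relative to solvent controls, from duplicates.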

[2] = compound: CN1CCN(c2nc(C3=C(c4c[nH]c5ccccc45)C(=O)NC3=O)c3ccccc3n2)CC1 [sotrastaurin]
Summary of the method: as §1

[3] = compound: CN1CCc2c(c3ccccc3n2Cc2ccc(C(=O)NO)cc2)C1 [Tubastatin A]
Summary of the method: as §1

[4] = compound: CN1CCN(CCOc2cc(OC3CCOCC3)c3c(Nc4c(Cl)ccc5c4OCO5)ncnc3c2)CC1 [saracatinib]
Summary of the method: as §1

[5] = compound: CNC(=O)C1=CC=CC=C1NC2=NC(=NC=C2Cl)NC3=C(C=C(C=C3)N4CCOCC4)OC
Summary of the method: as §1

[6] = compound: CNc1nc(-c2ccc3c(N)n[nH]c3c2)cc(N2C[C@@H](C(=O)NC3CCCCC3)CC[C@H]2C)n1
Summary of the method: as §1

[7] = compound: CC[C@@H]1C(=O)N(C)c2cnc(Nc3ccc(C(=O)NC4CCN(C)CC4)cc3OC)nc2N1C1CCCC1
Summary of the method: as §1

[8] = compound: COC(=O)N[C@@H](C)CNc1nccc(-c2cn(C(C)C)nc2-c2cc(Cl)cc(NS(C)(=O)=O)c2F)n1 [encorafenib]
Summary of the method: as §1

[9] = compound: COC(=O)[C@H](CCSC)NC(=O)C1=C(C=C(C=C1)NC[C@H](CS)N)C2=CC=CC=C2
Summary of the method: as §1

[10] = compound: CCn1cc(-c2ccnc3[nH]c(-c4cccc(CN(C)C)c4)cc23)c(-c2ccc(NC(=O)N(C)C)cc2)n1
Summary of the method: as §1

[11] = compound: CN1CCC(CNc2ccc3ncc(-c4cccc(OC(F)(F)F)c4)n3n2)CC1
Summary of the method: as §1

[12] = compound: CN1CC[C@H](c2c(O)cc(O)c3c(=O)cc(-c4ccccc4Cl)oc23)[C@H](O)C1 [alvocidib]
Summary of the method: as §1

[13] = compound: COc1cc(Nc2ncc3c(n2)-c2ccc(Cl)cc2C(c2c(F)cccc2OC)=NC3)ccc1C(=O)O [alisertib]
Summary of the method: as §1

[14] = compound: COc1cc2ncnc(Nc3ccc(F)c(Cl)c3)c2cc1OCCCN1CCOCC1 [gefitinib]
Summary of the method: as §1

[15] = compound: CCN(CCCOc1ccc2c(Nc3cc(CC(=O)Nc4cccc(F)c4)[nH]n3)ncnc2c1)CCOP(=O)(O)O [barasertib]
Summary of the method: as §1

Measured: log2 fold change

ZNF646 (UniProt O15015)
inactive: [1] -0.231 | [2] 0.055 | [3] 0.033

ZSCAN25 (UniProt Q6NSZ9)
inactive: [4] 0.058 | [5] -0.052 | [6] 0.066

ZNF655 isoform 3 (UniProt Q8N720)
inactive: [7] 0.079 | [2] 0.067 | [8] -0.015 | [9] 0.059

ZNF526 (UniProt Q8TF50)
inactive: [1] -0.048 | [10] 0.118 | [11] -0.142 | [4] 0.044 | [12] 0.005 | [3] -0.002 | [5] 0.036 | [6] 0.114 | [13] 0.081 | [14] 0.021

ZNF100 (UniProt Q8IYN0)
inactive: [15] -0.073 | [2] -0.021

ZNF813 (UniProt Q6ZN06)
inactive: [10] 0.504 | [11] -0.066 | [4] 0.137 | [12] 0.335 | [6] -0.072 | [13] 0.022 | [14] 0.038

Reprinted at random: two entries already listed, in no set order.
ZNF526 (UniProt Q8TF50)
inactive: [1] -0.048 | [10] 0.118 | [11] -0.142 | [4] 0.044 | [12] 0.005 | [3] -0.002 | [5] 0.036 | [6] 0.114 | [13] 0.081 | [14] 0.021

ZNF655 isoform 3 (UniProt Q8N720)
inactive: [7] 0.079 | [2] 0.067 | [8] -0.015 | [9] 0.059

Going on with the list.

ZMAT5 (UniProt Q9UDW3)
inactive: [5] 0.111

ZNF562 (UniProt Q6V9R5)
inactive: [4] -0.179 | [6] 0.318

ZRSR2 (UniProt Q15696)
inactive: [2] 0.006

ZNF440 (UniProt Q8IYI8)
inactive: [13] -0.038 | [14] 0.042

ZNF552 (UniProt Q9H707)
inactive: [13] -0.059 | [14] -0.106

ZSCAN21 (UniProt Q9Y5A6)
inactive: [7] -0.024 | [10] 0.043 | [11] 0.053 | [12] -0.11 | [8] 0.031 | [9] 0.103

ZNF184 (UniProt Q99676)
inactive: [1] 0.059 | [4] -0.052 | [2] -0.017 | [3] -0.066 | [6] -0.128 | [13] -0.105 | [14] -0.054

ZNF652 (UniProt Q9Y2D9)
inactive: [2] -0.034

ZNF746 isoform 2 (UniProt Q6NUN9)
inactive: [1] -0.282 | [3] -0.137 | [13] -0.183 | [14] 0.221

ZNF808 (UniProt Q8N4W9)
inactive: [1] -0.191 | [4] 0.206 | [2] -0.008 | [3] 0.093 | [6] -0.049

ZNF670 (UniProt Q9BS34)
inactive: [10] 0.015 | [11] 0.019 | [12] -0.039 | [5] 0.024 | [13] -0.037 | [14] -0.029

ZNF16 (UniProt P17020)
inactive: [2] 0.02

ZNF410 isoform 5 (UniProt Q86VK4)
inactive: [7] -0.04 | [2] -0.073 | [8] -0.106 | [9] 0.382

ZNF816 (UniProt Q0VGE8)
inactive: [1] 0.034 | [2] -0.167 | [3] -0.133 | [13] -0.056 | [14] 0.131

ZNRD1 (UniProt Q9P1U0)
inactive: [10] -0.082 | [11] -0.043 | [12] -0.05 | [5] 0.051 | [13] -0.075 | [14] -0.044

ZNF385A (UniProt Q96PM9)
inactive: [15] 0.031 | [1] 0.035 | [2] -0.315 | [3] -0.1 | [5] 0.27 | [13] -0.014 | [14] 0.007

ZNF286A (UniProt Q9HBT8)
inactive: [10] 0.208 | [11] 0.004 | [12] -0.017

ZNF627 (UniProt Q7L945)
inactive: [15] -0.241 | [10] -0.155 | [11] -0.014 | [2] 0.061 | [12] -0.01 | [5] 0.265

ZGRF1 (UniProt Q86YA3)
inactive: [7] 0.07 | [1] -0.098 | [10] -0.036 | [11] 0.072 | [4] -0.062 | [2] 0.08 | [12] 0.453 | [3] -0.028 | [6] 0.031 | [8] -0.039 | [9] -0.009

ZUP1 (UniProt Q96AP4)
inactive: [4] 0.023 | [6] 0.166

ZMYND19 (UniProt Q96E35)
inactive: [2] -0.01 | [5] -0.19

ZNF414 isoform 2 (UniProt Q96IQ9)
inactive: [7] 0.117 | [1] 0.238 | [10] -0.052 | [11] -0.014 | [2] -0.09 | [12] 0.012 | [3] -0.069 | [8] -0.1 | [9] -0.065

ZSCAN26 (UniProt Q16670)
inactive: [2] -0.239
